Laboratory results reported in US11446314B2, “Immunoablative therapies” (AVM Biotechnology LLC, priority 2018, dated 2022).

Columns and labels:
[1] = test system: peripheral blood lymphocytes; conditions: same dosing; control 1153
marginal zone = conditions: rats, 12.9 mg/kg HED, 48 hours
germinal centers = conditions: rats, 12.9 mg/kg HED, 48 hours
[2] = test system: multiple myeloma and other cancer cell lines
spleen cellularity = conditions: IP 10 mg/kg (HED 0.81 mg/kg) on day −6, −4, −2 before ACT; cited from earlier work

For `C[C@@H]1C[C@H]2[C@@H]3CCC4=CC(=O)C=C[C@]4(C)[C@@]3(F)[C@@H](O)C[C@]2(C)[C@@]1(O)C(=O)CO` [dexamethasone], which “natural killer (NK) cells” value [1] is on record?
The value was 958 live events.

What about the marginal zone inhibition (marginal zone) of the same molecule?
Its marginal zone inhibition is “maximally inhibited”.

And the germinal center inhibition (germinal centers)?
Its germinal center inhibition is “maximally inhibited”.

What about the direct tumor killing ([2]; about 1.6 mg/kg HED in a 48 hour period) of the same molecule?
The direct tumor killing was “about 50%”.

What about the “direct tumor killing at higher doses” value ([2]; doses up to about 12 mg/kg HED) of the same molecule?
The value was “maintained but not increased”.

And the “enhancement of ACT tumor killing” value (spleen cellularity)?
Its value is “did not enhance ACT tumor killing”.
